We go through two substances from paper PMC3582507.

Chains of the proteins cited; added tags and fusions are not shown.
UniProt P25293: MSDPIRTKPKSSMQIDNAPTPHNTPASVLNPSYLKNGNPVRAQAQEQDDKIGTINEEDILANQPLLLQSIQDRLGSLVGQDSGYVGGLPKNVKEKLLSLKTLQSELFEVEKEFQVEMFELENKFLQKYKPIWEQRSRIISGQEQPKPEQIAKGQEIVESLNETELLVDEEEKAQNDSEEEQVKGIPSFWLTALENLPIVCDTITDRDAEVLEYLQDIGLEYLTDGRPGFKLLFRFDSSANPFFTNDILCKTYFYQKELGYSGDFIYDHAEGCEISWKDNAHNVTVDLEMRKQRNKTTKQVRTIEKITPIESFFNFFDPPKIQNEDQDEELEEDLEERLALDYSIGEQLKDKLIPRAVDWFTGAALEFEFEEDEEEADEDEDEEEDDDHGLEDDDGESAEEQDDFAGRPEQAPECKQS
UniProt P06780: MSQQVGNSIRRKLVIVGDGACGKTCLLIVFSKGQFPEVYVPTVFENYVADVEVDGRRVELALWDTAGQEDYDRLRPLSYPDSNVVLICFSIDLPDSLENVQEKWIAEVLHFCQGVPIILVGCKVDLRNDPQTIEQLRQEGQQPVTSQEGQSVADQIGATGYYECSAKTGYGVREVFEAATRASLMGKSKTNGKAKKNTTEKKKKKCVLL

No constants are given. Whether binding was seen depends on the method and setting. In cells and extracts the contact can be indirect. These calls come from enrichment with a bait or labelling near it, and not all partners need be listed.

For the test, the target named is T1, Gps1-TAP (S. cerevisiae) (UniProt Q99299).
T1 sequence: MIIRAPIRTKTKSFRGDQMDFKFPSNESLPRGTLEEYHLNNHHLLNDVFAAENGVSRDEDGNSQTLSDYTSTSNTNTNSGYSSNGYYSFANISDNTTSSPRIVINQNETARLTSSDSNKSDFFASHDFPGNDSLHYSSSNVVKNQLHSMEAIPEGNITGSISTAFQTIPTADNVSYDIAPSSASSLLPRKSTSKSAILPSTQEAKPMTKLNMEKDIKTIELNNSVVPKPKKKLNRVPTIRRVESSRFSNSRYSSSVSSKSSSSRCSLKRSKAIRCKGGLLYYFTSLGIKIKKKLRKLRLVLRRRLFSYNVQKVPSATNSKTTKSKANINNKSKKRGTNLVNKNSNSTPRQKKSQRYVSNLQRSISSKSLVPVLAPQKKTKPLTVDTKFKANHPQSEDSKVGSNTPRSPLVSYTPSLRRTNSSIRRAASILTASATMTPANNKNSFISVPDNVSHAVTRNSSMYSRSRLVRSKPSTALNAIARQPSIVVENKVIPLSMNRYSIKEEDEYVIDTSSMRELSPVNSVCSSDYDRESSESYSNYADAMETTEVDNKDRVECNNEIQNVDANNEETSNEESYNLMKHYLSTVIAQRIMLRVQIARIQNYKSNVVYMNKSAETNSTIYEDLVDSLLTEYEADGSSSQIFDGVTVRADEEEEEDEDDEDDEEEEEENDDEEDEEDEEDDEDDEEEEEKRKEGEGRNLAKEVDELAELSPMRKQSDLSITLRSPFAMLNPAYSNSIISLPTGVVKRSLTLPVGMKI
As to the kind of experiment: affinity purification with mass spectrometry; large-scale TAP purification of Gps1-TAP from 1.6-l yeast culture with Dynabeads coupled to rabbit IgG; interacting proteins identified by mass spectrometry.

Take Nap1 (from UniProt P25293 1-417): the binding result is reported as “binds”.
In the case of “Rho1 (in purified Gps1-TAP complexes) (from UniProt P06780 1-209)” it was “binds”.
